Experimental data from PMC7819943, “Rice protein-binding microarrays: a tool to detect cis-acting elements near promoter regions in rice”.
The other results are listed elsewhere or left out.

Protein sequences, listed by entry. Tags and fused reporters are not part of them.
UniProt Q0JBA9, entry or part of it: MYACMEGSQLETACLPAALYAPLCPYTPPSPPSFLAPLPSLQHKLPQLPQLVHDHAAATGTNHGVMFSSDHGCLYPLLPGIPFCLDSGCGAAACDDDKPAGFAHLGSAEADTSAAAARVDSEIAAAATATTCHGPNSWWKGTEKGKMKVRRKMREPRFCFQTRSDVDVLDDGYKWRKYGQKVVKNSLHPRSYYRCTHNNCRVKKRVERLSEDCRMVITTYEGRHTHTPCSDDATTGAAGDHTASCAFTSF

What follows are sequences tested against OsWRKY34 (Oryza sativa, UniProt Q0JBA9 1-250) (assay: protein-binding microarray (RPBM); PBS, 2% BSA, 51.3 ng/ul salmon testes DNA, 50 uM zinc acetate, 200 nM TF, 25 C, 1 h; high values mean tight binding). Details: protein: recombinant; tags: N-terminal polyhistidine and DsRed monomer fusion (pET32a); label: CyDye5-dUTP incorporated in the synthesized complementary strand; 3' TTTTT single-stranded linker to array surface; dsDNA, one strand shown.
How it was run: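 Using Ni–NTA, transcription factors fused N-terminally to polyhistidine and DsRed were purified after expression in E. coli BL21-CodonPlus. These were incubated at 200 nM with a blocked, double-stranded custom Agilent array for 1 h at 25 °C in a buffer containing 50 µM zinc acetate, and the array was washed. The binding signal is per-feature fluorescence intensity (arbitrary units) on an Axon 4000B scanner.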
With “CCCATTCGTACTGATTCATCCGGCCCGTTTGATGGCCTTCCGGAGTCACCTAGTGCAG” the binding signal was 11600 fluorescence intensity (a.u.).
In the case of “TGTGTTTTTCGCCAACGAGGTTTTTCGAGCATTCCCATAGCGGAGTCACCTAGTGCAG”, the binding signal is reported as 8030 fluorescence intensity (a.u.).
“TGTTGGTGGTGAGGTGTGAGGTGAGGTGGGGTGGTGTGGCCGGAGTCACCTAGTGCAG” was tested, and the binding signal was 10100 fluorescence intensity (a.u.).
In the case of “AATTAGTCACACGTAAAATATTATTCATGTTTTATCATCTCGGAGTCACCTAGTGCAG”, the binding signal is reported as 8750 fluorescence intensity (a.u.).
In the case of “TCCACCCATCGTTCTCATGACCTGCCAACCCCATCCCAGCCGGAGTCACCTAGTGCAG”, the binding signal is reported as 10000 fluorescence intensity (a.u.).
For “CAGGCGCATTCAATTCTCCCATTTACCATCGCCACCTACACGGAGTCACCTAGTGCAG”, the binding signal was 8590 fluorescence intensity (a.u.).
In the case of “ATTTCTTCCATATTACTTGGTGGTTTTATTTTCCTATTAGCGGAGTCACCTAGTGCAG”, the binding signal is reported as 11200 fluorescence intensity (a.u.).
“CGCCACCGCCTCCGCCCTTAGCTGCACGACACACTCCAACCGGAGTCACCTAGTGCAG” was tested, and the binding signal was 8760 fluorescence intensity (a.u.).
With “CACTGTCATGTCCTGTGCACTCTTCATGCGACCATTACTCCGGAGTCACCTAGTGCAG” the binding signal was 11100 fluorescence intensity (a.u.).
For “AAAGTCATACCACCTTACTTTTTACGTTTGAATCACCATTCGGAGTCACCTAGTGCAG”, the binding signal was 8510 fluorescence intensity (a.u.).
For “GATCTATATATATGGTGTGTGTCCTCACTATCCGAAGGAACGGAGTCACCTAGTGCAG”, the binding signal was 10600 fluorescence intensity (a.u.).
In the case of “TCCACACTGCACTATGCCACTATGTACTGGTTATCTTCTTCGGAGTCACCTAGTGCAG”, the binding signal is reported as 10800 fluorescence intensity (a.u.).
For “GTCACTCACTCTACGCGACTACTACTACATCGCGCCTCTCCGGAGTCACCTAGTGCAG”, the binding signal was 8100 fluorescence intensity (a.u.).
For “GTTTTTTATTCGTGTCAAAACCTCTTCTGAATGAACATTTCGGAGTCACCTAGTGCAG”, the binding signal was 9240 fluorescence intensity (a.u.).
For “GATCTCCTCATGCCCTCGGCTGAACACATTGCGTTTGAAACGGAGTCACCTAGTGCAG”, the binding signal was 8400 fluorescence intensity (a.u.).
With “CCGCATCATATTCTGTTCCCCACCGCATCCTCCTCCGTTTCGGAGTCACCTAGTGCAG” the binding signal was 9000 fluorescence intensity (a.u.).
“TCTACTGATTTATATTCTTGTCTTATCACATTATCACCATCGGAGTCACCTAGTGCAG” was tested, and the binding signal was 8230 fluorescence intensity (a.u.).
For “CCACAGGGGCAAAATCGTCATTCTCCATCCCCGTTGCAATCGGAGTCACCTAGTGCAG”, the binding signal was 9310 fluorescence intensity (a.u.).
With “GGTGTACTCCTTTTAATACCACGCGGCTCTTCCGCGGACACGGAGTCACCTAGTGCAG” the binding signal was 9070 fluorescence intensity (a.u.).
For “AATCCTACACATTATTTTTATTTATTGTTACCATACTAAACGGAGTCACCTAGTGCAG”, the binding signal was 8070 fluorescence intensity (a.u.).
In the case of “TTTTGTCATTGCCGACTGATGCTTAATCACATTGTTGCGCCGGAGTCACCTAGTGCAG”, the binding signal is reported as 9120 fluorescence intensity (a.u.).
For “CTCACTGCACTGTCCCAGATCTCTCATTAATCCAACCCAGCGGAGTCACCTAGTGCAG”, the binding signal was 8580 fluorescence intensity (a.u.).
“TGAGGGGTGTTATTGGACAAAGGGCAGTAGTTAGGAGAAGCGGAGTCACCTAGTGCAG” was tested, and the binding signal was 10400 fluorescence intensity (a.u.).
In the case of “GTTCTGCGCCGTCTCGCCGGTCTCCATCTCCATCACCGGACGGAGTCACCTAGTGCAG”, the binding signal is reported as 8810 fluorescence intensity (a.u.).
With “ATCCAAATCAACGGTCCAACATTACTTGCCAGTTAGCCACCGGAGTCACCTAGTGCAG” the binding signal was 8700 fluorescence intensity (a.u.).
For “TTTGGCGCTGGTTAATATCCTAGTATGTTTCTTTGTCCCTCGGAGTCACCTAGTGCAG”, the binding signal was 8880 fluorescence intensity (a.u.).
“CATACTATAAACATGCTGGGCTGTGAGGACCTTGCTTTTCCGGAGTCACCTAGTGCAG” was tested, and the binding signal was 8070 fluorescence intensity (a.u.).
In the case of “GTGCGCCGGCGTGTGGTGGTGGGTGTGTAAGGGTAGGTGGCGGAGTCACCTAGTGCAG”, the binding signal is reported as 8800 fluorescence intensity (a.u.).
In the case of “ACATGTTGTCACCCTATAGGCAATTGGATGGACCACACACCGGAGTCACCTAGTGCAG”, the binding signal is reported as 8400 fluorescence intensity (a.u.).
In the case of “GATTGATTCCCTTTCTCCTCCGGAGTTGTCTTCTCCTCAGCGGAGTCACCTAGTGCAG”, the binding signal is reported as 8910 fluorescence intensity (a.u.).
“AATTTATGGAGATCATTTTTTTTCTGTTTCAAAGGAAAAACGGAGTCACCTAGTGCAG” was tested, and the binding signal was 19200 fluorescence intensity (a.u.).
For “ACCAAAGGTCCAGTATTTACCACTTAATTAACACTGCTAGCGGAGTCACCTAGTGCAG”, the binding signal was 9810 fluorescence intensity (a.u.).
“TCTTCTAATCTGGACCATTTTCGACATTCTGAAATTCTGACGGAGTCACCTAGTGCAG” was tested, and the binding signal was 8070 fluorescence intensity (a.u.).
In the case of “GCAATATATTACCATTAATTCCTTGTGTGCACTTCCCCGCCGGAGTCACCTAGTGCAG”, the binding signal is reported as 10600 fluorescence intensity (a.u.).
In the case of “CCTTTTCATGGTGGGCCTAGTTTTGAAAATGCCGGTAGCTCGGAGTCACCTAGTGCAG”, the binding signal is reported as 8190 fluorescence intensity (a.u.).
“CGCGCTGCCTTTATAGGCCACTCCCACCACCGCCGCCGCCCGGAGTCACCTAGTGCAG” was tested, and the binding signal was 8040 fluorescence intensity (a.u.).
For “ATTTAAGGTGGGACTCATCTCCTTCTTTCTTCTTCAGTCTCGGAGTCACCTAGTGCAG”, the binding signal was 9170 fluorescence intensity (a.u.).
For “GCTTCTCTTCTTCTTCTTCGCCTCGCCCTTGCCTCGTTCCCGGAGTCACCTAGTGCAG”, the binding signal was 9330 fluorescence intensity (a.u.).
In the case of “GCTGAATTTGTGTGCATGTATATCCATCCATTCATCGTTCCGGAGTCACCTAGTGCAG”, the binding signal is reported as 9460 fluorescence intensity (a.u.).
“TTGTACTGTCTACCTACTGGCCACTCTGCAACTGCCATTGCGGAGTCACCTAGTGCAG” was tested, and the binding signal was 8210 fluorescence intensity (a.u.).
For “TGCGCTGACTGTTTTTTTACCCCGAAAGCTATCCCATTTCCGGAGTCACCTAGTGCAG”, the binding signal was 10100 fluorescence intensity (a.u.).
“CCAAGTCAAAATCATACCTTGCCATGCTCTCCAAGCTACTCGGAGTCACCTAGTGCAG” was tested, and the binding signal was 8550 fluorescence intensity (a.u.).
